Where two headings read alike, the source gives them in different places. Some of these results come from one statement about several compounds together.
Key:
[1] = system: UVB radiation-induced inflammatory pain in rat cheek; assay type: in vivo
Source text: Ultraviolet B (UVB) radiation causes cutaneous inflammation in humans and animals. One important clinical consequence of UVB-induced inflammation is causing hyperalgesia. Changes in thermal sensitivities in the area of primary UVB irradiation are well documented both in humans and in the animal models (Zhang et al., 2009). […] This model provides an experimental model of post radiation pain and can mimic one type of burn pain. To determine the magnitude of anti-inflammatory pain effects for a given drug transdermally delivered by way of microneedle delivery, the depilated rat's cheeks were exposed to an inflammatory dosage of Ultraviolet B radiation (Zhang et al., 2009).
With the skin of a rat's cheek was stretched, the circular (8 mm in diameter) fiberglass applicator of the UV Curing Device (Dymax Bluewave 200) was applied to the center of the rat's cheek. […] Upon completion of UVB irradiation, all rats were returned to their home cages and were assessed for thermal pain between 24-48 hours later. […] The rats were lightly anesthetized with urethane (800 mg/kg, IP) and heat-induced withdrawal latencies of the cheeks (an indicator of C fiber stimulation responses) were measured. […]
After removing patches, cheek withdrawal latencies induced by continuous and noxious heat were assessed at different time points from the end of the 20 minute treatment period up to 3 hours post treatment. […]

[2] = system: paw incision-induced postoperative pain in rats; assay: Paw incision-induced postoperative pain model, mechanical pain threshold; assay type: in vivo, rat
Source text: A clinically applicable incision model in rodents is a hind-paw deep incision that produces a robust mechanical and cold allodynia, and thermal hyperalgesia (Pogatzki et al., 2003; Xu and Brennan, 2010). Male rats (Sprague-Dawley, 250-260 g, Harlan) used (n=8/group) were anesthetized with 2.5% isoflurane and the skin of the dorsolateral hindpaw surface were prepped by first depilitating it (using Nair), followed by rinsing and application of povidone-iodine. Afterwards, a 5 mm longitudinal incision was made near the hairy/glabrous border though the skin and subcutaneous fascia of the left hindpaw as described by (Pogatzki et al., 2003; Xu and Brennan, 2010). After briefly elevating the underlying muscle with curved forceps the wound is closed with a single nylon (8-0) mattress stitch.
Pre-surgery (baseline) and 24 hours after the surgery, the mechanical allodynia of the incision hindpaws of the rats were assessed using von Frey monofilaments with an up/down procedure (Chaplan et al., 1994). […] Mechanical pain thresholds were measured at 0.5, 1, 2, 3, 4, 5 and 6 hours post-intradermal injection.

## CSCC[C@H](NC(=O)CNC(=O)CNC(=O)[C@H](CO)NC(=O)[C@H](CCCNC(=N)N)NC(=O)[C@H](CO)NC(=O)[C@H](CC(C)C)NC(=O)[C@H](CC(C)C)NC(=O)CNC(=O)[C@H](C)NC(=O)[C@H](CC(C)C)NC(=O)[C@H](CCCNC(=N)N)NC(=O)[C@H](Cc1c[nH]cn1)NC(=O)[C@@H](NC(=O)[C@@H](N)C(C)C)[C@@H](C)O)C(=O)N[C@H](C(=O)N[C@@H](CCCCN)C(=O)N[C@@H](CO)C(=O)N[C@@H](CC(N)=O)C(=O)N[C@@H](Cc1ccccc1)C(=O)N[C@H](C(=O)N1CCC[C@H]1C(=O)N[C@H](C(=O)N[C@@H](CC(N)=O)C(=O)N[C@H](C(=O)NCC(=O)N[C@@H](CO)C(=O)N[C@@H](CCCCN)C(=O)N[C@@H](C)C(=O)N[C@@H](Cc1ccccc1)C(N)=O)C(C)C)[C@@H](C)O)C(C)C)C(C)C [CGRP 8-37]
[1]; rat, in vivo
  onset of analgesic effect post-topical application: ≤ 5 min
[2]; rat, in vivo
  time at which analgesic effect was first observed post-treatment: ≤ 0.5 h

## H-NFVPTNVGPFAF-NH2 [AFA-peptide 3, NH2-N-F-V-P-T-N-V-G-P-F-A-F-CONH2]
[1]; topical application 10 μM, 100 μL, first timepoint assessed
  onset of analgesic effect post-topical application: ≤ 5 min
[2]; intradermal injection 1 μM, 50 μL, 24 hours after incision, first timepoint assessed
  time at which analgesic effect was first observed post-treatment: ≤ 0.5 h

Reference: US10287337B2 (priority 2015, dated 2019)
